Test results reported in publication PMC10983667.
These are yes or no findings as the source states them, for the method shown. Binding seen in cells or lysates may run through a third protein. Some entries that bind do so weakly or less than the wild type.

Protein sequences, listed by entry. Tags and fused reporters are not part of them.
UniProt P83741: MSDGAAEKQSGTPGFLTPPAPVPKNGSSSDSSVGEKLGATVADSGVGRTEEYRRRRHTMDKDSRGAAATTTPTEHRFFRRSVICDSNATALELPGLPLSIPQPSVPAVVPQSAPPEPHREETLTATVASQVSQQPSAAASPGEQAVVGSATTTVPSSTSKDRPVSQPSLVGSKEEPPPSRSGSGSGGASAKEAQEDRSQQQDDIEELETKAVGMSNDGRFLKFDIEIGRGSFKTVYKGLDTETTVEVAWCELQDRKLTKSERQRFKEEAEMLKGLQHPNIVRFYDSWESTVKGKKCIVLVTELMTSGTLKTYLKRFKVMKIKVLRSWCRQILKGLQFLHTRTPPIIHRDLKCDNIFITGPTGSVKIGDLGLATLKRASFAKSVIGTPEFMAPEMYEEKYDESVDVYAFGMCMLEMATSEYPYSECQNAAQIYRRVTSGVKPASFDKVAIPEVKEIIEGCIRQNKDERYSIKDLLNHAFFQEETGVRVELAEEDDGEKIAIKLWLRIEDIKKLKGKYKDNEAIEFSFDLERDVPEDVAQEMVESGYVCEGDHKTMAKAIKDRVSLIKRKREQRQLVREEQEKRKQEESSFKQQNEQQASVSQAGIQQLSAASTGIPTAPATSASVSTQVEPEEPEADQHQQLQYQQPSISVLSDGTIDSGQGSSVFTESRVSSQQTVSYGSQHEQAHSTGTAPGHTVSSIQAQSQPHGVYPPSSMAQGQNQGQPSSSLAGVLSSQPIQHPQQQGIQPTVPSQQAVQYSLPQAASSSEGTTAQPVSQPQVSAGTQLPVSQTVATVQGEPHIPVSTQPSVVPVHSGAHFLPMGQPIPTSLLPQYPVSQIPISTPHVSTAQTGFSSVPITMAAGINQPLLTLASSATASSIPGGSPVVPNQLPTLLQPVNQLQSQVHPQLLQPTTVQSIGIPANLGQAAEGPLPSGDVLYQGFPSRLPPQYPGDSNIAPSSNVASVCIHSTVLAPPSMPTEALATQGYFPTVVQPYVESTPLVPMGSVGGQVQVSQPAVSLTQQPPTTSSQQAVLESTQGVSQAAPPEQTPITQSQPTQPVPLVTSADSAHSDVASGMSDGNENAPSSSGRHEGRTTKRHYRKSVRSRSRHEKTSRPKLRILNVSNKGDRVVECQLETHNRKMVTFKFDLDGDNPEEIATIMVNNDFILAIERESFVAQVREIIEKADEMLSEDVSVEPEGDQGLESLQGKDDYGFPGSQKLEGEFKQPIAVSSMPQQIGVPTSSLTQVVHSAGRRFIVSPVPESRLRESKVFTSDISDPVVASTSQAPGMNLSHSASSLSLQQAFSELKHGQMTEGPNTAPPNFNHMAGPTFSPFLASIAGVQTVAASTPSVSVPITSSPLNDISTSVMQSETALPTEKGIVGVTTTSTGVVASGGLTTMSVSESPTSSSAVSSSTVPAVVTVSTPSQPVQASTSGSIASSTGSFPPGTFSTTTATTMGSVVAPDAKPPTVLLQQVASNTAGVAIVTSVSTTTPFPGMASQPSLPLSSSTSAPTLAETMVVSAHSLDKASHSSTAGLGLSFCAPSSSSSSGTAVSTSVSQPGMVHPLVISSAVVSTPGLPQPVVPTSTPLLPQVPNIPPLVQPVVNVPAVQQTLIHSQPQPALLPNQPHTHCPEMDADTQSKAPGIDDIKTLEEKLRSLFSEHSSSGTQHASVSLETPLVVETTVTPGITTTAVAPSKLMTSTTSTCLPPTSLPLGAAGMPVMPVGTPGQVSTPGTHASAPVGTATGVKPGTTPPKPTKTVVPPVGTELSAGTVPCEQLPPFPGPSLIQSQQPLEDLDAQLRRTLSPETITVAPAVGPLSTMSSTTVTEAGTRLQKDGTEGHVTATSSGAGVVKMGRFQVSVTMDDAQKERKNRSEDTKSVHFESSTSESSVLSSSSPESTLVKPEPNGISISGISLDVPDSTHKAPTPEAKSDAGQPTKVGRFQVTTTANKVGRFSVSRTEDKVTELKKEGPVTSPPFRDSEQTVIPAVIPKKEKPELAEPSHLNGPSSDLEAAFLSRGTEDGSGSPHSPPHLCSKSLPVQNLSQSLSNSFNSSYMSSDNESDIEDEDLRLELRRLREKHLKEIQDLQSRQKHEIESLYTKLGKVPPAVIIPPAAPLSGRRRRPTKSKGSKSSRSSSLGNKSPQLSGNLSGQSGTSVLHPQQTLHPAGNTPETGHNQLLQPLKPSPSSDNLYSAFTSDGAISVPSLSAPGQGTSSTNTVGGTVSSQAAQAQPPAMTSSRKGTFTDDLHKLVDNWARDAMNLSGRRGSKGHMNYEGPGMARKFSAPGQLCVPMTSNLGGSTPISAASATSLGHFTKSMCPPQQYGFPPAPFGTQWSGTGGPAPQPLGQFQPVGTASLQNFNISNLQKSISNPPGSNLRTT

Biological target: T1, CYLD (endogenous, mouse BMSCs) (mouse (endogenous in BMSCs)) (UniProt Q80TQ2)
T1 sequence: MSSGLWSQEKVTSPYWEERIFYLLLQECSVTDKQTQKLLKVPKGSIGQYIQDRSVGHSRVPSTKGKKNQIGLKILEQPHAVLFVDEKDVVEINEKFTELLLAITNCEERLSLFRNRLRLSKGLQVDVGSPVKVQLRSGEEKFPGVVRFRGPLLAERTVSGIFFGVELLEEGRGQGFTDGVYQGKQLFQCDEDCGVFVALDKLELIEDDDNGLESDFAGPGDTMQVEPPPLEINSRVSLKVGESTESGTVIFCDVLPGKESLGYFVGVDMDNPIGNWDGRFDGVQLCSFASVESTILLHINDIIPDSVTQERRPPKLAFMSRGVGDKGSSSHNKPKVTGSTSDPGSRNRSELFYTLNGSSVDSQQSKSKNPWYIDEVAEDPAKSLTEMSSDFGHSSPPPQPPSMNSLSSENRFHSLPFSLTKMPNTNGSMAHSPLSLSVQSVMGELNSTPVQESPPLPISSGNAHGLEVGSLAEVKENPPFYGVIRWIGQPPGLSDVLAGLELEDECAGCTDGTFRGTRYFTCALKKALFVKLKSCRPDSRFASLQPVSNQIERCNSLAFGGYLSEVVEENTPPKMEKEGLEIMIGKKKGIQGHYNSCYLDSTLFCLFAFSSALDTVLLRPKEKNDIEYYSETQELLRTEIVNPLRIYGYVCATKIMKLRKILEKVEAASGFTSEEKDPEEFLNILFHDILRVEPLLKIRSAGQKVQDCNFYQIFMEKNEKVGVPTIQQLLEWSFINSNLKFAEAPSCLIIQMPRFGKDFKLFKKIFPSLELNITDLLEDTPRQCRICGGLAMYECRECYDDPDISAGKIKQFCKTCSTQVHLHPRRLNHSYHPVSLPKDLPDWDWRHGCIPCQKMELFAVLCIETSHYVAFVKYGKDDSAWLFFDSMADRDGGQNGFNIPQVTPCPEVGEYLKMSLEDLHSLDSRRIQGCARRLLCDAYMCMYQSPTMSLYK
Experiment: co-IP; endogenous proteins of OVX BMSCs or normal BMSCs; Protein A/G Plus magnetic beads with antibodies to CYLD, WNK1 or IgG overnight at 4 °C; blots for CYLD or WNK1

Substance: WNK1 (endogenous, mouse BMSCs) (from UniProt P83741 1-2377) (enzyme)
- binding: binds
